# Assay results published in article PMC5462538.
# No constants are given. Whether binding was seen depends on the method and setting. Binding seen in cells or lysates may run through a third protein. A result given as binding can be weak or reduced; the word gives no strength. Sequences can lack the tags named with a protein.
# Target: T1, mouse TOMT with a C-terminal FLAG tag (TOMT-FLAG) (mouse) (UniProt A1Y9I9)
# T1 sequence: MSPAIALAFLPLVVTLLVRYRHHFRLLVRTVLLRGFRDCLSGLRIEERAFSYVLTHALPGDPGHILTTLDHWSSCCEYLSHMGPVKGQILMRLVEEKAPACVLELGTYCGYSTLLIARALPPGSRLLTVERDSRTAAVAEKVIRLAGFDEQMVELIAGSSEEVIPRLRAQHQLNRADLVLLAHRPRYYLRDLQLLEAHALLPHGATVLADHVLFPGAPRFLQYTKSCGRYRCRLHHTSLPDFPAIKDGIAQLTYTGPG
# Test: co-IP; HEK293 cells co-transfected, lysed after 48 hr in CoIP buffer (50 mM HEPES pH 7.5, 50-300 mM NaCl, 1.5 mM MgCl2, 10% glycerol, 1% Triton X-100, 1 mM EDTA); IP 1 hr at 4°C with HA affinity gel (Figure 8A,B,E) or Flag M2 affinity gel (Figure 8C,D), Western blot
substance,measurement,value
PCDH15-CD2,binding,binds
